In PubChem BioAssay AID652054 (National Center for Advancing Translational Sciences (NCATS), 2013):
Values joined by “and” are separate entries in the source; they are usually repeats but may differ in a detail not shown here. Equal entries are not always repeated. In all, about 360,000 compounds went through this assay and about 9,100 (2.5%) were called active. Inconclusive results, whose numbers are uncertain, are shown with a selection of clear calls. No stated cut-off is given here; in the data, active means max response below about -50%; inconclusive means no clear call, values can overlap the other calls; inactive means above that.

Amino acid sequences for entries named in this document (tags omitted).
UniProt P35462, whole entry, looked up: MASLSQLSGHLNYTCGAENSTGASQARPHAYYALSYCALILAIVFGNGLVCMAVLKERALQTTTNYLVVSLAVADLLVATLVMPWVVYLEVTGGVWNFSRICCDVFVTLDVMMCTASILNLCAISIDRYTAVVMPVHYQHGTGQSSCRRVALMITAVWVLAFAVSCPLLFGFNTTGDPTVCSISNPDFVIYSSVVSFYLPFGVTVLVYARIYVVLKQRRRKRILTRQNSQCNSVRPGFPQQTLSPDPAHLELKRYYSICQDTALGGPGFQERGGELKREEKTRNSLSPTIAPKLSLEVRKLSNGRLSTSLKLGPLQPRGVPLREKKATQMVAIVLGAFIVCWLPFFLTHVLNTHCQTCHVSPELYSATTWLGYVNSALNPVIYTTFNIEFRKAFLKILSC

target: D(3) dopamine receptor (Homo sapiens) (UniProt P35462); assay: qHTS of D3 Dopamine Receptor Antagonist: qHTS; conditions: D3R cells, DiscoveRx beta-arrestin luminescence, antagonist mode; hits give low values
Procedure, shortened: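 Cells expressing the human receptor were seeded at 1500 cells/well, incubated overnight at 37 degrees C in 5% CO2, then exposed to library compounds with dopamine controls for 90 minutes at 37 degrees C before luminescent detection.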
On the % scale 0 is the no-effect control and ±100 the full control effect.

| Compound | max response, negative = inhibition |
| --- | --- |
| CCC(C(=O)NC1CCCC1)n1c(-c2ccnc3ccccc23)nc2ccccc21 (centres undefined) | inactive: -3.33% |
| CN(C)CCCNc1oc(-c2ccccc2Cl)nc1S(=O)(=O)c1ccccc1 | active: -72.4% |
| N#CC1=CN(Cc2ccccc2)C=C(/C=N/Nc2ccccc2)C1 | inactive: -0.766% |
| Cn1c(Cl)cnc1C1CC(=O)c2cc(Cl)ccc2O1 (centres undefined) | inconclusive: -33.3% |
| COc1cc2ccccc2cc1C(=O)NC(=S)Nc1nnn(C)n1 | inactive: 0.727% |
| OCCC1CN(Cc2ccc(-c3ccco3)cc2)CCN1Cc1ccsc1 (centres undefined) | inactive: -27.2% |
| O=S(=O)(Nc1ccc(-c2ccc3nncn3n2)cc1)c1ccc(Cl)s1 | inconclusive: -45.9% |
| CCOC(=O)CSc1nc2sc3c(c2c(=O)[nH]1)CC(C)(CC)OC3 (centres undefined) | inconclusive: -35.9% |
| O=c1[nH]cnc2c1ncn2-c1ccc(N(CCO)CCO)cc1 | inactive: 1.7% |
| O=C1C(=O)N(CCS(=O)(=O)c2ccccc2)c2ccc(Cl)cc21 | active: -75% |
| COC(=O)c1cc(NC(=O)c2ccc(Cn3cc(Cl)cn3)o2)cc(C(=O)OC)c1 | inconclusive: -42.6% |
| Cc1ccc[n+](C(C)C(=O)Nc2ccc(C)c([N+](=O)[O-])c2)c1 (centres undefined) | active: -70% |
| COc1cccc(/C=N/NC(=O)NC2CCCCC2)c1O | inconclusive: -39.3% |
| Cc1c(NC(=S)NC(=O)c2cc3ccccc3o2)cccc1C(=O)O | inconclusive: -36.3% |
| Cc1cccc2sc(NC(=O)Cn3c(C)csc3=O)nc12 | inconclusive: -45.3% |
| COc1ccc(C(c2sc3nc(C)nn3c2O)N2CC(C)OC(C)C2)cc1OC (centres undefined) | inactive: -2.82% |
| C=C(C)Cn1c(-c2ccncc2)n[nH]c1=S | inconclusive: -33.2% |
| CC1(C(=O)Nc2cccc3c2CCCC3)CCN1C(=O)CCc1ccc(Cl)cc1Cl (centres undefined) | inactive: 9.05% |
| CCN1C(=O)[C@H]2[C@H]3CN=C(SCc4ccc(C)cc4)N3[C@@](Cc3ccccc3)(C(=O)OC)[C@H]2C1=O | active: -56.9% |
| CCOC(=O)c1ccc(NC(=S)Nc2cccc(C)n2)cc1 | inactive: 0% |
| CN(C)c1ccc(C2/C(=C(/O)c3ccc(Br)cc3)C(=O)C(=O)N2C)cc1 (centres undefined) | inconclusive: -44.4% |
| C1=C(CCNc2nnnn2-c2ccccc2)CCCC1 | active: -61.4% |
| Cc1cc(/C=C(\C#N)C(=O)NCc2cccs2)c(C)n1-c1ccccc1F | inconclusive: -46.2% |
| CCOc1ccc(OCC)c(NS(=O)(=O)c2cccc3nsnc23)c1 | inconclusive: -34.2% |
| CC(=O)NC(c1ccc(F)c(F)c1)c1nc(-c2cccc(C(C)C)c2)cs1 (centres undefined) | inactive: -7.18% |
| Cc1cc(C)c2c(=O)n(CC(=O)Nc3ccc(Cl)cc3)sc2n1 | inconclusive: -32.9% |
| Cc1ccc2c(c1)CO[C@@]21O[C@H](CCO)C[C@H](O)[C@H]1O | inconclusive: -40.1% |

| Compound | max response, negative = inhibition |
| --- | --- |
| Cc1nn(Cc2ccccc2)c2sc(C(=O)NCc3cccnc3)cc12 | inconclusive: -36.1% |
| CC(C)[C@@H](N)C(=O)NC[C@H]1O[C@@H](n2cnc3c(=O)[nH]c(N)nc32)[C@H](O)[C@@H]1O | inconclusive: -31.8% |
| Cc1cc(-c2nc3ncccc3o2)ccc1NC(=O)c1ccc([N+](=O)[O-])o1 | inactive: 13.4% |
| OC(CNC1CCCCC1)CON=C1CCSc2c(Cl)cccc21 (centres undefined) | active: -66.3% |
| O=C1OC(c2ccccc2)=C/C1=C\N1CCOCC1 | inconclusive: -43.3% |
| CC(C)(CCl)C(=O)Nc1ccc(Sc2ccc(F)cc2)cc1 | inconclusive: -33.6% |
| COc1ccc2c(c1)Cc1sc(NC(=O)c3ccccc3)nc1-2 | inconclusive: -30.8% |
| NC(=S)N/N=C1/CCSc2ccc3ccccc3c21 | inconclusive: -34.1% |
| COc1ccc(NC(=O)NCc2cccn2C)c(OC)c1 | inconclusive: -48.1% |
| O=S(=O)(Nc1ccc(Cl)cn1)c1cccc(S(=O)(=O)c2ccccc2)c1 | inconclusive: -35.5% |
| Cn1c(-c2ccc(F)cc2)cnc1SCC(=O)NCc1ccco1 | active: -51.9% |
| CCOC(=O)N1CCC(Nc2c(NCCN3CCN(c4ccccc4F)CC3)c(=O)c2=O)CC1 | inconclusive: -50% and inconclusive: -34.9% |
| CCCCCC(=O)Nc1ccc(C(=O)CN2C(=O)NC3(CCCCCC3)C2=O)cc1 | inconclusive: -30.8% |
| Fc1ccccc1/C=N/Nc1ncnc2ccccc12 | inconclusive: -32.1% |
| Cc1ccc(Cn2c(C(C)Nc3nc(-c4ccc(Cl)cc4)cs3)nc3cc(C(=O)NCCCO)ccc32)cc1 (centres undefined) | inactive: 14.1% |
| CC(OC(=O)c1nc(-c2ccccc2)n(-c2ccccc2)n1)C(=O)Nc1cc(Cl)cc(Cl)c1 (centres undefined) | inactive: 0% |
| CN(C)c1ccc(C(=O)OCC(=O)NC2CCCCC2)cc1 | inconclusive: -37.1% |
| Cc1cccc2c(N=NC(=O)c3ccc(NS(=O)(=O)c4cccs4)cc3)c(O)[nH]c12 | inconclusive: -37% |
| Oc1ccc(Br)cc1/C=N/Nc1ncc(-c2ccccc2)cn1 | inconclusive: -40.5% |
| CCc1nnc(NS(=O)(=O)c2ccc(NC(=S)NC(=O)/C=C/c3ccc(F)cc3)cc2)s1 | inconclusive: -31.1% |
| Cc1cc(N2CCN(C)CC2)nc2ccc(NC(=O)CCC(=O)N3CCN(c4ccc([N+](=O)[O-])cc4)CC3)cc12 | inconclusive: -33.6% |
| CCC(C)[C@H](NS(=O)(=O)c1ccc(F)cc1Br)C(=O)OC (some centres undefined) | inactive: 0% |
| S=c1ncc2[nH]c(=S)[nH]c2[nH]1 | inconclusive: -37.2% |
| CCC(=O)Nc1cccc(C2=NOC3(C2)C[C@H](C(N)=O)N(C(=O)Cc2ccc([N+](=O)[O-])cc2)C3)c1 (some centres undefined) | inactive: 5.11% |
| Oc1cccc(Nc2nc(O)c(/C=C3\C=Nc4ccccc43)s2)c1 | inconclusive: -32.9% |
| O=S(=O)(NCC[C@@H]1CC[C@H](NS(=O)(=O)c2cccc(F)c2)[C@@H](CO)O1)c1cccc(F)c1 | inactive: 19.4% |
